Test results from patent US5786334A, “Hexapeptide having immunostimulatory activity” (Technology Resources International, Inc., priority 1993, dated 1998).
Not every detail of the peptide structures is certain; ends, links or a residue may be inferred. Peptide text beside a SMILES is read from it.

Key:
[1] = test system: irradiated (CBA×C57B1)F1 mice; test: Restoration of antibody formation in sublethally irradiated mice (spleen AFC); assay type: in vivo
[2] = test system: hybrid mice, (CBAxC57B1)F1; test: Ankier hot plate test of pain sensitivity; assay type: in vivo; conditions: for Latency time of nociceptive reaction (Sec) M ± m: synthesized peptide

| SMILES | Enhancement of antibody production ([1]; irradiated mice (2 GU), compared with 0.30% in control irradiated group) | AFC response in spleen of irradiated mice ([1]; single injection with SRBC, single injection at peak of immune response, or daily injections during 4 days) | Activity on pain sensitivity (summary of Table 2) ([2]; synthesized individual hexapeptides) | Latency time of nociceptive reaction (Sec) M ± m ([2]; dose 10^-4 g (mice)) [s] | Latency time of nociceptive reaction (Sec) M ± m ([2]; dose 10^-5 g (mice)) [s] | Latency time of nociceptive reaction (Sec) M ± m ([2]; dose 10^-6 g (mice)) [s] | Latency time of nociceptive reaction (Sec) M ± m ([2]; dose 10^-7 g (mice)) [s] | Latency time of nociceptive reaction (Sec) M ± m ([2]; dose 10^-8 g (mice)) [s] | Latency time of nociceptive reaction (Sec) M ± m ([2]; dose 10^-9 g (mice)) [s] |
| --- | --- | --- | --- | --- | --- | --- | --- | --- | --- |
| CC(C)C[C@H](NC(=O)[C@@H](N)Cc1ccccc1)C(=O)NCC(=O)N[C@@H](Cc1ccccc1)C(=O)N1CCC[C@H]1C(=O)N[C@H](C(=O)O)[C@@H](C)O [α-chain, Phe--Leu--Gly--Phe--Pro--Thr] (H-FLGFPT-OH) | 67.5-81.2% | induced an AFC elevation in each case | active | 19.2 ± 1.4 | 14.5 ± 2.2 | 15.4 ± 3.8 | 14.0 ± 1.8 | 11.6 ± 1.1 | – |
| CC(C)C[C@H](N)C(=O)N[C@H](C(=O)N[C@H](C(=O)N[C@@H](Cc1ccc(O)cc1)C(=O)N1CCC[C@H]1C(=O)N[C@@H](Cc1c[nH]c2ccccc12)C(=O)O)C(C)C)C(C)C [β-chain, Leu--Val--Val--Tyr--Pro--Trp] (H-LVVYPW-OH) | – | – | – | – | 17.4 ± 1.5 | 18.9 ± 2.6 | 21.5 ± 1.4 | 18.4 ± 2.4 | 20.2 ± 0.8 |
